PubChem BioAssay AID192 (DTP/NCI, 2004)
The list does not hold the whole screen: it gathers tests that were run many times, whatever their T/C, doses with no T/C, and many T/C values between a quarter and a half above the control. Other doses and runs of a compound stand elsewhere. T/C is the treated group as % of the vehicle group. Some doses have a count of surviving animals in place of a T/C: the source holds a T/C of zero for them, seemingly a mark for toxic or unscored doses. Some survivor counts are full or nearly so, which does not show that the dose was tolerated: survival well below the control is almost never listed, so the zero probably covers shortened survival too. Counts of survivors are from the toxicity check (mostly the fifth day) where no day follows; animals may have died later. Schedule codes are those of the source, taken here to give the interval after Q, in days (D) or hours (H), and the number of doses after X. Some structures stand for samples that the source files as different forms (salt, stereo form or complex); doses refer to the form tested. Some entries hold several experiments; the values are given in rising order. For survival time, the PubChem record calls one and a half times the control and up active, and a quarter to a half above the control has no call in these data; cut-offs in other NCI protocols can differ. Some T/C values carry the count of animals alive at the toxicity check (mostly the fifth day); without a count, all were alive then.

Test system: BDF1 mice, B16 melanoma ip, median survival T/C
Experiment: NCI In Vivo Anticancer Drug Screen. Data for tumor model B16 Melanoma (intraperitoneal) in B6D2F1 (BDF1) mice
Details: T/C endpoint: median survival time, higher T/C = longer survival
Outline: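 Mice with transplantable tumors; drug vs vehicle groups; endpoint survival or tumor size; value = T/C.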

[1] = dose: 200.0 mg/kg/injection, schedule: Q01DX009 (ip), vehicle: saline
[2] = dose: 100.0 mg/kg/injection, schedule: Q01DX009 (ip), vehicle: Klucel (hydroxypropylcellulose) (HPC)
[3] = dose: 200.0 mg/kg/injection, schedule: Q01DX009 (ip), vehicle: Klucel (hydroxypropylcellulose) (HPC)
[4] = dose: 100.0 mg/kg/injection, schedule: Q01DX009 (ip), vehicle: saline with Tween-80
[5] = dose: 400.0 mg/kg/injection, schedule: Q01DX009 (ip), vehicle: Klucel (hydroxypropylcellulose) (HPC)
[6] = dose: 75.0 mg/kg/injection, schedule: Q01DX009 (ip), vehicle: Klucel (hydroxypropylcellulose) (HPC)
[7] = dose: 150.0 mg/kg/injection, schedule: Q01DX009 (ip), vehicle: Klucel (hydroxypropylcellulose) (HPC)
[8] = dose: 300.0 mg/kg/injection, schedule: Q01DX009 (ip), vehicle: Klucel (hydroxypropylcellulose) (HPC)
[9] = dose: 400.0 mg/kg/injection, schedule: Q01DX009 (ip), vehicle: saline
[10] = dose: 50.0 mg/kg/injection, schedule: Q01DX009 (ip), vehicle: Klucel (hydroxypropylcellulose) (HPC)
[11] = dose: 50.0 mg/kg/injection, schedule: Q01DX009 (ip), vehicle: saline with Tween-80
[12] = dose: 50.0 mg/kg/injection, schedule: Q01DX009 (ip), vehicle: saline
[13] = dose: 100.0 mg/kg/injection, schedule: Q01DX009 (ip), vehicle: saline

**Q.** Cc1cc(NCCN(C(C)C)C(C)C)nc(/N=C(\N)Nc2ccc(Cl)c(C(F)(F)F)c2)n1 was tested. Which survivor count (dose: 20.0 mg/kg/injection, schedule: Q01DX009 (ip), vehicle: Klucel (hydroxypropylcellulose) (HPC)) did it give?
**A.** 10 of 10

**Q.** What about the survivor count (dose: 40.0 mg/kg/injection, schedule: Q01DX009 (ip), vehicle: Klucel (hydroxypropylcellulose) (HPC)) of the same molecule?
**A.** 9 of 10

**Q.** What about the survivor count (dose: 80.0 mg/kg/injection, schedule: Q01DX009 (ip), vehicle: Klucel (hydroxypropylcellulose) (HPC)) of the same molecule?
**A.** 8 of 10

**Q.** Which survivor count [1] does the source give for CN(C)CC(C(=O)Cc1ccccc1)c1ccccc1 (stereo not drawn) here?
**A.** 0 of 10

**Q.** For COC(=O)C1(C)CCC(c2ccc(OC)cc2)CC1=O (stereo not drawn), which survivor count [2] is on record?
**A.** 10 of 10

**Q.** What does the source list for Cn1c2nc3ccccc3c-2nc2ccccc21?
**A.** survivor count (dose: 12.5 mg/kg/injection, schedule: Q01DX009 (ip), vehicle: water): 9 of 10; survivor count (dose: 25.0 mg/kg/injection, schedule: Q01DX009 (ip), vehicle: Klucel (hydroxypropylcellulose) (HPC)): 10 of 10; survivor count (dose: 25.0 mg/kg/injection, schedule: Q01DX009 (ip), vehicle: water): 10 of 10; survivor count [2]: 10 of 10; survivor count [3]: 10 of 10

**Q.** CO[C@H]1Nc2c(ccc(C)c2O)C(=O)N2C=C(/C=C/C(N)=O)C[C@@H]12 was tested. Which survivor count (dose: 0.8 mg/kg/injection, schedule: Q04DX003 (ip), vehicle: DMSO) did it give?
**A.** 9 of 10

**Q.** For CSc1ccc(NC(=O)CCl)cc1, which survivor count [4] is on record?
**A.** 10 of 10

**Q.** Which survivor count (dose: 2.5 mg/kg/injection, schedule: Q01DX001 (ip), vehicle: water) does the source give for COc1cccc2c1C(=O)c1c(O)c3c(c(O)c1C2=O)C[C@@](O)(C(C)O)C[C@@H]3OC1CC(N2CCOCC2C#N)C(O)C(C)O1 (stereo partly drawn) here?
**A.** 0 of 10

**Q.** And the survivor count (dose: 5.0 mg/kg/injection, schedule: Q01DX001 (ip), vehicle: water)?
**A.** 0 of 10

**Q.** What about the survivor count (dose: 10.0 mg/kg/injection, schedule: Q01DX001 (ip), vehicle: water) of the same molecule?
**A.** 0 of 10

**Q.** And the survivor count (dose: 20.0 mg/kg/injection, schedule: Q01DX001 (ip), vehicle: water)?
**A.** 0 of 10

**Q.** And the survivor count (dose: 40.0 mg/kg/injection, schedule: Q01DX001 (ip), vehicle: water)?
**A.** 0 of 10

**Q.** What about the T/C (dose: 18.75 micrograms/kg/injection, schedule: Q01DX001 (ip), vehicle: water) of the same molecule?
**A.** 125 and 127 % of control

**Q.** And the T/C (dose: 37.5 micrograms/kg/injection, schedule: Q01DX001 (ip), vehicle: water)?
**A.** 140 % of control

**Q.** What about the T/C (dose: 75.0 micrograms/kg/injection, schedule: Q01DX001 (ip), vehicle: water) of the same molecule?
**A.** 128 [9 of 10 alive] and 132 % of control

**Q.** And the survivor count (dose: 150.0 micrograms/kg/injection, schedule: Q01DX001 (ip), vehicle: water)?
**A.** 3 of 10

**Q.** With O=NN(CCF)C(=O)NCCO as the molecule, how does the T/C (dose: 7.5 mg/kg/injection, schedule: Q01DX001 (ip), vehicle: saline) read?
**A.** 129 % of control

**Q.** Which survivor count [5] does the source give for Nc1ccccc1SC1CC(=O)N(c2ccccc2Cl)C1=O (stereo not drawn) here?
**A.** 8 of 10

**Q.** With O=c1[nH]c(Cl)ncc1F as the molecule, how does the survivor count [6] read?
**A.** 10 of 10

**Q.** And the survivor count [7]?
**A.** 10 of 10

**Q.** And the survivor count [8]?
**A.** 0 of 10

**Q.** O=C(O)c1ccc(O)c([N+](=O)[O-])c1 was tested. Which survivor count [9] did it give?
**A.** 8 of 10

**Q.** For Nc1ncnc2c1ncn2C1OC(CO)C(O)C1O (stereo not drawn), which T/C (dose: 300.0 mg/kg/injection, schedule: Q01DX009 (ip), vehicle: saline) is on record?
**A.** 131 % of control

**Q.** What does the source list for CC(C)N(C(=O)c1ccccc1Cl)c1ccccc1?
**A.** survivor count [10]: 9 of 10; survivor count [3]: 6 of 10; survivor count [5]: 0 of 10

**Q.** How did the survivor count (dose: 400.0 mg/kg/injection, schedule: Q01DX009 (ip), vehicle: carboxymethylcellulose (CMC)) turn out when CS(=O)(=O)c1nnc(-c2ccccc2)s1 was run?
**A.** 2 of 10

**Q.** For CC1CC(C)(O)CC(C(O)CC2CC(=O)NC(=O)C2)C1=O (stereo not drawn), which survivor count (dose: 4.08 mg/kg/injection, schedule: Q04DX003 (ip), vehicle: saline) is on record?
**A.** 8 of 8

**Q.** For CN(C)CCCN=Cc1ccccc1O.CN(C)CCCN=Cc1ccccc1O.[Ni+2], which survivor count (dose: 12.5 mg/kg/injection, schedule: Q04DX003 (ip), vehicle: saline with Tween-80) is on record?
**A.** 9 of 10

**Q.** For COc1ccc(CCNC(C)=O)cc1OC, which survivor count [2] is on record?
**A.** 10 of 10

**Q.** What about the survivor count [3] of the same molecule?
**A.** 9 of 10

**Q.** For COc1cc(NS(C)(=O)=O)ccc1Nc1c2ccc([N+](=O)[O-])cc2nc2c(C)c(C)ccc12, which survivor count [11] is on record?
**A.** 6 of 6

**Q.** And the survivor count [4]?
**A.** 5 of 6

**Q.** And the survivor count (dose: 200.0 mg/kg/injection, schedule: Q01DX009 (ip), vehicle: saline with Tween-80)?
**A.** 3 of 6

**Q.** What about the survivor count (dose: 400.0 mg/kg/injection, schedule: Q01DX009 (ip), vehicle: saline with Tween-80) of the same molecule?
**A.** 0 of 6

**Q.** CC1OC(O[C@H]2C[C@](O)(C(C)O)Cc3c(O)c4c(c(O)c32)C(=O)c2c(O)cccc2C4=O)CC(NC=O)C1O (stereo partly drawn) was tested. Which T/C (dose: 1.0 micrograms/kg/injection, schedule: Q01DX009 (ip), vehicle: saline) did it give?
**A.** 126 % of control

**Q.** Which T/C (dose: 1.8 mg/kg/injection, schedule: Q01DX009 (ip), vehicle: saline with Tween-80) does the source give for COC(C(=O)C(O)C(C)O)C1CC2C=C3C=C(OC4CC(OC5CC(O)C(OC)C(C)O5)C(OC(C)=O)C(C)O4)C(C)C(=O)C3=C(O)C2=C(O)C1OC1CC(OC2CC(OC3CC(C)(O)C(O)C(C)O3)C(O)C(C)O2)C(O)C(C)O1 (stereo not drawn) here?
**A.** 143 % of control

**Q.** What about the T/C (dose: 2.0 mg/kg/injection, schedule: Q01DX009 (ip), vehicle: saline with Tween-80) of the same molecule?
**A.** 131 and 138 % of control [9 of 10 alive]

**Q.** And the T/C (dose: 4.0 mg/kg/injection, schedule: Q01DX009 (ip), vehicle: saline with Tween-80)?
**A.** 142 % of control

**Q.** And the survivor count (dose: 6.0 mg/kg/injection, schedule: Q01DX009 (ip), vehicle: saline with Tween-80)?
**A.** 9 of 10

**Q.** What about the survivor count (dose: 9.0 mg/kg/injection, schedule: Q01DX009 (ip), vehicle: saline with Tween-80) of the same molecule?
**A.** 6 of 10

**Q.** For CCCCCCCCN(C)/N=N/c1nc[nH]c1C(N)=O, which survivor count (dose: 150.0 mg/kg/injection, schedule: Q01DX009 (ip), vehicle: saline with Tween-80) is on record?
**A.** 8 of 8

**Q.** What about the survivor count (dose: 300.0 mg/kg/injection, schedule: Q01DX009 (ip), vehicle: saline with Tween-80) of the same molecule?
**A.** 10 of 10

**Q.** How did the survivor count [12] turn out when C1CCc2nnnn2CC1 was run?
**A.** 10 of 10

**Q.** And the survivor count (dose: 100.0 mg/kg/injection, schedule: Q04DX003 (ip), vehicle: saline)?
**A.** 1 of 10

**Q.** What about the survivor count (dose: 200.0 mg/kg/injection, schedule: Q04DX003 (ip), vehicle: saline) of the same molecule?
**A.** 0 of 10

**Q.** And the survivor count (dose: 400.0 mg/kg/injection, schedule: Q04DX003 (ip), vehicle: saline)?
**A.** 0 of 10

**Q.** How did the survivor count [5] turn out when Brc1nnnn1-c1ccccc1 was run?
**A.** 10 of 10

**Q.** How did the survivor count (dose: 600.0 mg/kg/injection, schedule: Q01DX009 (ip), vehicle: saline) turn out when NCCN was run?
**A.** 4 of 6

**Q.** Nc1nc(=O)n(C2OC(CO)C(O)C2O)cc1F (stereo not drawn) was tested. Which survivor count (dose: 12.5 mg/kg/injection, schedule: Q01DX009 (ip), vehicle: saline) did it give?
**A.** 10 of 10

**Q.** And the T/C (dose: 36.0 mg/kg/injection, schedule: Q01DX009 (ip), vehicle: saline)?
**A.** 128 and 135 % of control

**Q.** And the T/C [12]?
**A.** 141 % of control

**Q.** What about the survivor count [12] of the same molecule?
**A.** 10 of 10

**Q.** What about the T/C [13] of the same molecule?
**A.** 129 % of control

**Q.** What about the survivor count [13] of the same molecule?
**A.** 10 of 10

**Q.** What about the survivor count [1] of the same molecule?
**A.** 10 of 10

**Q.** What about the survivor count [9] of the same molecule?
**A.** 10 of 10

**Q.** Which survivor count [2] does the source give for O=C(Nc1ccc(N=C=S)cc1Cl)c1cc(Cl)cc(Cl)c1O here?
**A.** 0 of 10 and 2 of 10

**Q.** What about the survivor count [3] of the same molecule?
**A.** 0 of 10 and 5 of 10

**Q.** Which results are given for Cc1cc(C(=O)NNC(C)Cc2ccccc2)no1 (stereo not drawn)?
**A.** survivor count (dose: 2.3 mg/kg/injection, schedule: Q01DX009 (ip), vehicle: saline): 10 of 10; survivor count [6]: 9 of 10; survivor count [7]: 9 of 10; survivor count [8]: 3 of 10

**Q.** CCCCCCC(=O)C(CCCC)(C(=O)OCC)C(=O)OCC was tested. Which survivor count [3] did it give?
**A.** 10 of 10

**Q.** What about the survivor count [5] of the same molecule?
**A.** 10 of 10

**Q.** For CC(C)=CC(=O)OC1C2C(C)C(=O)OC2C(O)C(C)C2C=CC(=O)C21C (stereo not drawn), which survivor count [10] is on record?
**A.** 10 of 10

**Q.** What about the survivor count [11] of the same molecule?
**A.** 10 of 12

**Q.** And the survivor count [2]?
**A.** 7 of 10
